Source: PMC4287497, “Phosphorylation of Elp1 by Hrr25 Is Required for Elongator-Dependent tRNA Modification in Yeast” (PLoS Genetics, 2015)
No constants are given. Whether binding was seen depends on the method and setting. A result given as binding can be weak or reduced; the word gives no strength. For part of these data: In cells and extracts the contact can be indirect. For part of these data: Where a sequence is shown, tags or fusion partners need not be part of it. Each block holds one molecule with its values, some of them ahead of it.

Amino acid sequences for entries named in this document (tags omitted). A change or cut given only in a name is not applied to a line headed by its entry.
UniProt P29295: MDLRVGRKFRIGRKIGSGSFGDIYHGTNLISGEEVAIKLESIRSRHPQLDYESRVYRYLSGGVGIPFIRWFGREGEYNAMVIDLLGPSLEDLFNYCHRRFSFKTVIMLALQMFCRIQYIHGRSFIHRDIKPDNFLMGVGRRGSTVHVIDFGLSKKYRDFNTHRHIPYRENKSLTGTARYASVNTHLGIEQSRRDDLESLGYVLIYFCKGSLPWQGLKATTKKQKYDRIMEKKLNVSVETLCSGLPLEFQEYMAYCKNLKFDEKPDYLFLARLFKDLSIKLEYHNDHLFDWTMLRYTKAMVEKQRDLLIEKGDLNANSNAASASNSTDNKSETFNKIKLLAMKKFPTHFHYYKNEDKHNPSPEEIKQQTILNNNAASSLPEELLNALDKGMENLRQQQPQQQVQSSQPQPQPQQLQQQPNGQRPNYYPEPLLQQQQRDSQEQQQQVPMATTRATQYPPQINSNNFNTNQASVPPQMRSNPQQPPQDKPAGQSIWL

What was measured:
Elp3-TAP (S. cerevisiae) = biological target: T1, Elp3-TAP (S. cerevisiae) (UniProt Q02908); experiment: tandem affinity purification with Western blot; Elongator purified by Elp3-TAP from elp1Δ ELP3-TAP strains carrying ELP1-6HA alleles; Western blot for Elp3-TAP and Elp1-6HA
T1 sequence: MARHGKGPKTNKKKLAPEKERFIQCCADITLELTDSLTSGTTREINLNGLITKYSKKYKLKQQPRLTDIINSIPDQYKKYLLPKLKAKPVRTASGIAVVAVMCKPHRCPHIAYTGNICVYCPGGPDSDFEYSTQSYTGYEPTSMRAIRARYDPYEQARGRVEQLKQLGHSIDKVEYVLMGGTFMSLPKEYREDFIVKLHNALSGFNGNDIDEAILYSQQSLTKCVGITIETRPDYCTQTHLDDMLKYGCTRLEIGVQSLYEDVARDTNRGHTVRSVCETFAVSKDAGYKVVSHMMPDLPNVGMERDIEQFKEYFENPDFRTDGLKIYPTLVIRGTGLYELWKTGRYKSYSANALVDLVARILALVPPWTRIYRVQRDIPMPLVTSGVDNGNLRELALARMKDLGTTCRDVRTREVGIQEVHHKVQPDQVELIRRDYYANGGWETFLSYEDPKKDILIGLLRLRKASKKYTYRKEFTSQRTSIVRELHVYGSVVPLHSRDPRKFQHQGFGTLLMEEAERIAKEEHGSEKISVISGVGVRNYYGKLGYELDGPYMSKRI

Elp1-HA (S. cerevisiae) = biological target: T2, Elp1-HA (S. cerevisiae) (UniProt Q06706); experiment: co-IP; Elp1-HA immunoprecipitated from extracts of HRR25 and hrr25-2 strains; Western blot with anti-HA, anti-myc and anti-Hrr25; untagged ELP1 as control
T2 sequence: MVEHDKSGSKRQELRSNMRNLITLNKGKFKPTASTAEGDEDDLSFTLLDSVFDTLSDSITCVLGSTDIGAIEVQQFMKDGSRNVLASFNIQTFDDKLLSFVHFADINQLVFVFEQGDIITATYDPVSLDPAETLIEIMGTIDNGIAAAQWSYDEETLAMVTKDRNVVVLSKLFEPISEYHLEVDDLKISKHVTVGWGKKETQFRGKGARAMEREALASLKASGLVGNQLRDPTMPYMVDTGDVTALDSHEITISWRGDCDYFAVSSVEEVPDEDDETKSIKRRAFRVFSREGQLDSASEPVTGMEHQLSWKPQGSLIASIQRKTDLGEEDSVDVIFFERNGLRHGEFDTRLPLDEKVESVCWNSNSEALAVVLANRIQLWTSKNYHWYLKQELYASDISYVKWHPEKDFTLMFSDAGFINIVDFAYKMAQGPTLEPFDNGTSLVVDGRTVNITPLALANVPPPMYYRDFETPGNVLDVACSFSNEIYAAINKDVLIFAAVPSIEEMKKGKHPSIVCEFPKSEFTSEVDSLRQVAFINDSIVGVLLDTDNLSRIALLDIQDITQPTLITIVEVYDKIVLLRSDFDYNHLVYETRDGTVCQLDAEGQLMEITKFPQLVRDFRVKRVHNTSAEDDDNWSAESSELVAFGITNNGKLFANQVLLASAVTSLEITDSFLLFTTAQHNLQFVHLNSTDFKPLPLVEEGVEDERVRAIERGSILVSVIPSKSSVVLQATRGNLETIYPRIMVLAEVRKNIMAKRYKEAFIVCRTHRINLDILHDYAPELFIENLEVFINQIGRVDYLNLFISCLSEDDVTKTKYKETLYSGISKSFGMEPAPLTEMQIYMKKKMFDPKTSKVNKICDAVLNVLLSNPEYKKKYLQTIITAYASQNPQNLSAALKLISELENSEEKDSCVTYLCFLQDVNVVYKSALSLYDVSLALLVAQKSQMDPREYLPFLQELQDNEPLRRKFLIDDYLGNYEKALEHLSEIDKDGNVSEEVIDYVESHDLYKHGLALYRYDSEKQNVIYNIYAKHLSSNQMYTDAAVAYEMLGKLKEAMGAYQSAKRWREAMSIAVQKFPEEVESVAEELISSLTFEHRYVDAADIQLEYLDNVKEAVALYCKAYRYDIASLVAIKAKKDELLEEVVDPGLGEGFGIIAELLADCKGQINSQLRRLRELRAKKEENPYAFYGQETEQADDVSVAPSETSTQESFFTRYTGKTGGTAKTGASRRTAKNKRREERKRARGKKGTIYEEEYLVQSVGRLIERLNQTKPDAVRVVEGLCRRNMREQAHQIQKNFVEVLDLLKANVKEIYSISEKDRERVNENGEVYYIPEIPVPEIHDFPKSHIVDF

[1] = biological target: Elp1-KR9A-GFP (S. cerevisiae) (UniProt Q06706); experiment: co-IP; GFP-tagged Elp1 (genomic locus) precipitated with GFP-trap from yeast extracts; Western blot with anti-GFP and anti-HA; densitometry of Kti12-HA normalised to Elp1-GFP, wild type set to 1.0

binding (Elp3-TAP (S. cerevisiae)): binds
Molecule: Elp1 in which the C-terminal region had been deleted (6HA-tagged) (S. cerevisiae) (domain or fragment)

binding (Elp1-HA (S. cerevisiae)): binds
Molecule: Hrr25 of the hrr25-2 mutant strain (from UniProt P29295) (enzyme)

binding [1]: binds
B1: Kti12-HA6 (natural protein, S. cerevisiae, UniProt P34253 1-313, looked up)
chain: MPLVLFTGYPCSGKTTLAKHLVQLLQSKIDATPSLSKYSITYHSDESLGIKHSDYITSQDERKLRSEIISAVKRDLSKNKIVIVDSLNYIKGFRYQLHCEVKNLSTTFCVIQTLCPPETIFEWNKTSNPNPWEPELLNQLIQRYEEPNSSNRWDSPLFAILTPQDNITDYIDDICKVVFQTSKSAKNSGHNDPLSKGLQKPNSATVLKPASQSNFIQVLDIETSKIIKTIMNHIKSLTSIGGVSNGTRVIVSEGITDINDDGCFFVDLPIGNVVTLAQLQRLKRQFINFNKLRDIDQDRIGPLFADYLNKNLN
notes: Kti12, accessory protein of Elongator, S. cerevisiae; also called HA-tagged Kti12; source: S. cerevisiae KTI12-HA6 strains, in cell extract
